EP4582093A1, “RUMINANT CONCEPTION CHANCE-IMPROVING COMPOSITION” (National University Corporation Hokkaido University, priority 2022, dated 2025)
“And” between values parts separate entries of the source, which are not always exact repeats. Equal values may be shown once. At least one peptide structure holds a part that was inferred or is arguable (an end, a ring closure or a residue). Marks after values point to notes of the source that are not given here. Where a SMILES comes first, the peptide text is derived from it.

What was measured:
Assay type in all cases: in vivo, cow
[1] = tested on: RB cows with an abnormal endometrial EGF concentration profile; test: Conception rate after artificial insemination with intravaginal treatment in RB cows (pregnancy test by transrectal ultrasound)
[2] = tested on: RB cows with an abnormal endometrial EGF concentration profile; test: Endometrial EGF concentration on the third day after AI/treatment (ELISA of endometrial biopsy) and normalization rate of the EGF profile in RB cows; settings: for endometrial EGF concentration on the third day after estrus / EGF concentration profile on the third day after estrus: Example 1, FIG. 5, peptide 3 1600 mol (so in the source), in words; for endometrial EGF concentration on the third day after estrus: peptide 1 32 to 1600 nmol; for EGF concentration profile on the third day after estrus: peptide 1 320 to 1600 nmol; for Normalization rate / Endometrial EGF Concentrations After treatment: Example 2
[3] = tested on: Holstein cows at the time of first insemination after calving; test: Endometrial EGF concentration and EGF profile in cows at first postpartum insemination; settings: Example 4; for Endometrial EGF Concentrations After treatment: Day 65 after delivery; for Endometrial EGF Concentrations After treatment / Endometrial EGF Concentrations ΔEGF / The proportion of cows whose EGF concentrations increased: rOPN 16 nmol or peptide 1 320 mol (so in the source); for The proportion of cows with the normal EGF profile after treatment: rOPN 16 nmol or peptide 1 320 mol (so in the source) at AI on 62nd day after delivery
[4] = tested on: Holstein cows at the time of first insemination after calving; test: Conception rate in cows at first postpartum insemination (transrectal ultrasound); settings: Example 4, rOPN 16 nmol or peptide 1 320 mol (so in the source), ultrasound around 38 days after AI
[5] = Example 1, EGF profile after treatment Normalized, 320 nmol
[6] = Example 1, EGF profile after treatment Normalized, 1600 nmol
[7] = Example 1, EGF profile after treatment Unnormalized, 320 nmol
[8] = Example 1, EGF profile after treatment Unnormalized, 1600 nmol
[9] = Example 2, EGF profile after treatment Normalized, 1600 nmol
[10] = Example 2, EGF profile after treatment Unnormalized, 1600 nmol
[11] = EGF profile after treatment Normalized, 1600 nmol
[12] = EGF profile after treatment Unnormalized, 1600 nmol
[13] = all cows of the group (Total), third day, 320 nmol
[14] = all cows of the group (Total), third day, 1600 nmol
[15] = EGF profile before treatment Altered
[16] = EGF profile before treatment Normal

Q: Which Conception rate ([1]; Example 1, EGF profile after treatment Normalized, 32 nmol) does the source give for `CC(C)C[C@H](NC(=O)CNC(=O)[C@H](Cc1ccc(O)cc1)NC(=O)[C@H](C)NC(=O)[C@@H](NC(=O)[C@H](CO)NC(=O)[C@H](CC(=O)O)NC(=O)CNC(=O)[C@H](CCCNC(=N)N)NC(=O)CN)C(C)C)C(=O)N[C@@H](CCCCN)C(=O)O` [Peptide 1, GRGDSVAYGLK] (H-GRGDSVAYGLK-OH) here?
A: 37.5 (3/8) %

Q: And the Conception rate [1, 5]?
A: 69.2^a (9/13) %

Q: What about the Conception rate [1, 6] of the same molecule?
A: 60.0 (6/10) %

Q: What about the Conception rate ([1]; Example 1, EGF profile after treatment Unnormalized, 32 nmol) of the same molecule?
A: 11.8 (2/17) %

Q: And the Conception rate [1, 7]?
A: 16.7^b (2/12) %

Q: And the Conception rate [1, 8]?
A: 45.5 (5/12) %

Q: What about the Conception rate ([1]; Example 1, Total, 32 nmol) of the same molecule?
A: 20.0^† (5/25) %

Q: And the Conception rate ([1]; Example 1, Total, 320 nmol)?
A: 44.0* (11/25) %

Q: What about the Conception rate ([1]; Example 1, Total, 1600 nmol) of the same molecule?
A: 50.0* (11/22) %

Q: And the “Conception rate” value ([1]; Example 2, EGF profile after treatment Normalized, 320 nmol)?
A: 60.3 (38/63) ^C %

Q: What about the “Conception rate” value [1, 9] of the same molecule?
A: 65.4 (17/26) ^C %

Q: And the “Conception rate” value ([1]; Example 2, EGF profile after treatment Unnormalized, 320 nmol)?
A: 23.1 (15/65) ^D %

Q: And the “Conception rate” value [1, 10]?
A: 33.3 (8/24) ^D %

Q: And the “Conception rate” value ([1]; Example 2, Total, 320 nmol)?
A: 41.4 (53/128) ^B %

Q: And the “Conception rate” value ([1]; Example 2, Total, 1600 nmol)?
A: 50.0 (25/50) ^B %

Q: And the “endometrial EGF concentration on the third day after estrus” value [2]?
A: the same extent as in the rOPN treated group

Q: And the “EGF concentration profile on the third day after estrus” value [2]?
A: the same as in the rOPN treatment group

Q: What about the Normalization rate ([2]; 32 nmol) of the same molecule?
A: 32.0 (8/25) ^† %

Q: And the Normalization rate ([2]; 320 nmol)?
A: 49.2 (63/128) * %

Q: And the Normalization rate ([2]; 1600 nmol)?
A: 52.0 (26/50) * %

Q: What about the “Endometrial EGF Concentrations After treatment” value ([2]; EGF profile after treatment Normalized, 320 nmol) of the same molecule?
A: 5.97 (5.38-6.71) bAB ng/g tissue weight

Q: And the “Endometrial EGF Concentrations After treatment” value [2, 11]?
A: 6.18 (5.55-7.39) ^bB ng/g tissue weight

Q: What about the “Endometrial EGF Concentrations After treatment” value ([2]; EGF profile after treatment Unnormalized, 320 nmol) of the same molecule?
A: 1.86 (1.58-3.18) ng/g tissue weight

Q: What about the “Endometrial EGF Concentrations After treatment” value [2, 12] of the same molecule?
A: 2.50 (1.43-3.45) ^b ng/g tissue weight

Q: And the “Endometrial EGF Concentrations After treatment” value ([2]; all cows of the group (Total), third day, 32 nmol)?
A: 3.26 (2.04-5.01) ^b ng/g tissue weight

Q: What about the “Endometrial EGF Concentrations After treatment” value [2, 13] of the same molecule?
A: 4.38 (1.85-5.97) ^b* ng/g tissue weight and 4.38 (1.85-5.97) ^bB ng/g tissue weight

Q: And the “Endometrial EGF Concentrations After treatment” value [2, 14]?
A: 4.90 (2.56-6.22) ^b* ng/g tissue weight and 4.90 (2.56-6.22) ^bB ng/g tissue weight

Q: And the “Endometrial EGF Concentrations After treatment” value [3, 15]?
A: 4.92 (3.98-5.74) bBy ng/g tissue weight

Q: What about the “Endometrial EGF Concentrations After treatment” value [3, 16] of the same molecule?
A: 5.62 (4.32-6.06) ^ay ng/g tissue weight

Q: What about the “Endometrial EGF Concentrations After treatment” value ([3]; Total) of the same molecule?
A: 5.16 (4.14-5.92) ^b ng/g tissue weight

Q: And the “Endometrial EGF Concentrations ΔEGF” value [3, 15]?
A: 2.21 (1.20-3.32) ^bB ng/g tissue weight

Q: And the “The proportion of cows whose EGF concentrations increased” value [3, 15]?
A: 93.4 (45/48) ^b %

Q: What about the “The proportion of cows with the normal EGF profile after treatment” value (“The proportion of cows … after treatment” below) [3, 15] of the same molecule?
A: 54.2 (26/48) ^B %

Q: And the “Endometrial EGF Concentrations ΔEGF” value [3, 16]?
A: -0.29 (-0.99-0.62) ^a ng/g tissue weight

Q: What about the “The proportion of cows whose EGF concentrations increased” value [3, 16] of the same molecule?
A: 34.7 (17/49) ^a %

Q: What about the “The proportion of cows … after treatment” value [3, 16] of the same molecule?
A: 71.4 (35/49) B %

Q: What about the “Endometrial EGF Concentrations ΔEGF” value ([3]; Total) of the same molecule?
A: 0.80 (-0.36-2.18) ng/g tissue weight

Q: And the “The proportion of cows whose EGF concentrations increased” value ([3]; Total)?
A: 63.9 (62/97) %

Q: And the “The proportion of cows … after treatment” value ([3]; Total)?
A: 62.9 (131/97) %

Q: And the “Conception rate” value [4, 15]?
A: 60.4 (29/48) ^bB %

Q: And the “Conception rate” value [4, 16]?
A: 32.7(16/49) ^a %

Q: What about the “Conception rate” value ([4]; Total) of the same molecule?
A: 46.7 (45/97) ^A %

Q: Which Conception rate [1, 5] does the source give for `N=C(N)NCCC[C@H](NC(=O)CN)C(=O)NCC(=O)N[C@@H](CC(=O)O)C(=O)N[C@@H](CO)C(=O)O` [Peptide 2, GRGDS, reference compound] here?
A: 75.0^a (3/4) %

Q: What about the Conception rate [1, 6] of the same molecule?
A: 60.0 (3/5) %

Q: What about the Conception rate [1, 7] of the same molecule?
A: 6.7^b (1/15) %

Q: And the Conception rate [1, 8]?
A: 20.0 (3/15) %

Q: What about the Conception rate ([1]; Example 1, Total, 320 nmol) of the same molecule?
A: 21.1^† (4/19) %

Q: And the Conception rate ([1]; Example 1, Total, 1600 nmol)?
A: 30.0 (6/20) %

Q: What about the Normalization rate ([2]; 320 nmol) of the same molecule?
A: 20.0 (4/20) ^† %

Q: What about the Normalization rate ([2]; 1600 nmol) of the same molecule?
A: 20.0 (4/20) ^† %

Q: What about the “Endometrial EGF Concentrations After treatment” value [2, 13] of the same molecule?
A: 2.17 (1.84-3.74) ^b† ng/g tissue weight

Q: What about the “Endometrial EGF Concentrations After treatment” value [2, 14] of the same molecule?
A: 1.83 (1.61-4.73) ^b† ng/g tissue weight

Q: Which Conception rate [1, 5] does the source give for `CC(C)C[C@H](NC(=O)CNC(=O)[C@H](Cc1ccc(O)cc1)NC(=O)[C@H](C)NC(=O)[C@@H](NC(=O)[C@@H](N)CO)C(C)C)C(=O)N[C@@H](CCCCN)C(=O)O` [Peptide 3, SVAYGLK] (H-SVAYGLK-OH) here?
A: 83.3^a (5/6) %

Q: And the Conception rate [1, 6]?
A: 62.5^a (5/8) %

Q: What about the Conception rate [1, 7] of the same molecule?
A: 14.3^b (2/14) %

Q: What about the Conception rate [1, 8] of the same molecule?
A: 28.6^b (2/7) %

Q: And the Conception rate ([1]; Example 1, Total, 320 nmol)?
A: 35.0 (7/20) %

Q: What about the Conception rate ([1]; Example 1, Total, 1600 nmol) of the same molecule?
A: 46.7* (7/15) %

Q: And the “Conception rate” value [1, 9]?
A: 64.3 (18/28) ^C %

Q: What about the “Conception rate” value [1, 10] of the same molecule?
A: 18.5 (5/27) ^D %

Q: What about the “Conception rate” value ([1]; Example 2, Total, 1600 nmol) of the same molecule?
A: 41.8 (23/55) ^B %

Q: What about the “endometrial EGF concentration on the third day after estrus” value [2] of the same molecule?
A: the same extent as in the rOPN treated group

Q: What about the “EGF concentration profile on the third day after estrus” value [2] of the same molecule?
A: the same as in the rOPN treatment group

Q: What about the Normalization rate ([2]; 320 nmol) of the same molecule?
A: 36.0 (9/25) ^† %

Q: What about the Normalization rate ([2]; 1600 nmol) of the same molecule?
A: 50.9 (28/55) ^* %

Q: And the “Endometrial EGF Concentrations After treatment” value [2, 11]?
A: 6.00 (5.26-6.21) ^bAB ng/g tissue weight

Q: And the “Endometrial EGF Concentrations After treatment” value [2, 12]?
A: 2.36 (1.47-3.39) ^b ng/g tissue weight

Q: What about the “Endometrial EGF Concentrations After treatment” value [2, 13] of the same molecule?
A: 2.67 (1.45-5.44) ^b† ng/g tissue weight

Q: And the “Endometrial EGF Concentrations After treatment” value [2, 14]?
A: 4.92 (2.36-6.03) ^b* ng/g tissue weight and 4.92 (2.36-6.03) ^bB ng/g tissue weight

Q: Which Normalization rate ([2]; 320 nmol) does the source give for `CC(C)C[C@H](NC(=O)CNC(=O)[C@H](Cc1ccc(O)cc1)NC(=O)[C@H](C)NC(=O)[C@@H](NC(=O)[C@H](CO)NC(=O)[C@H](CCC(=O)O)NC(=O)CNC(=O)[C@H](CCCNC(=N)N)NC(=O)CN)C(C)C)C(=O)N[C@@H](CCCCN)C(=O)O` [Peptide 4, GRGESVAYGLK] (H-GRGESVAYGLK-OH) here?
A: 16.0 (8/50) ^† %

Q: And the Normalization rate ([2]; 1600 nmol)?
A: 19.2 (5/26) ^† %

Q: What about the “Endometrial EGF Concentrations After treatment” value [2, 13] of the same molecule?
A: 2.44 (1.83-3.56) ^b† ng/g tissue weight

Q: What about the “Endometrial EGF Concentrations After treatment” value [2, 14] of the same molecule?
A: 2.83 (2.18-4.12) ^b† ng/g tissue weight
